Values quoted from earlier work in US12285431B2, “Treatment of Rb-negative tumors using topoisomerase inhibitors in combination with cyclin dependent kinase 4/6 inhibitors” (G1 Therapeutics, Inc., priority 2014, dated 2025).
At least one compound was matched to its structure with a doubt left.

System: Rb-negative tumors
Settings: Michaud et al., Cancer Res. 70:3228-3238 (2010); cited from earlier work

CC(=O)c1c(C)c2cnc(Nc3ccc(N4CCNCC4)cn3)nc2n(C2CCCC2)c1=O [PD0332991, palbociclib]
activity against Rb-negative tumors (in words): inactive against Rb-negative tumors
